This assay addresses Mini-B (human). As to the kind of experiment: SDS-PAGE; 4 µg peptide in 8 µl buffer (50 mM MOPS, 50 mM Tris, pH 7.7, 0.1% SDS, 1 mM EDTA), neither heated nor reduced; 16% acrylamide gel; Coomassie blue and silver staining; molecular weight markers 2.5-16.9 kDa; both purified.

These are yes or no findings as the source states them, for the method shown.

For one molecule, binding results are on record in article PMC2805716, “Critical Structural and Functional Roles for the N-Terminal Insertion Sequence in Surfactant Protein B Analogs” (PLoS ONE, 2010).

B1: Mini-B (peptide)
chain: CWLCRALIKRIQAMIPKGGRMLPQLVCRLVLRCS
notes: surfactant protein B (SP-B), human, residues 8-25 (N-terminal helix region); numbers count on: the mature protein (79 residues); surfactant protein B (SP-B), human, residues 63-78 (C-terminal helix region); Oxidised form with intramolecular disulfides Cys-8 to Cys-40 and Cys-11 to Cys-34 (S-MB numbering); also called MB; source: synthetic peptide (Fmoc solid phase, HPLC-purified, air-oxidised)
For the molecule B1, the binding entry was “no binding (tested: 4 µg peptide in 8 µl buffer)”.
